Results are given in words; binding and its absence hold for the method and conditions named. In cells and extracts the contact can be indirect. Here binding means that the protein was enriched with, or labelled near, the bait; the list need not be complete.
Biological target: Sirt5, stably overexpressed in RAW264.7 cells (mouse (cDNA of the murine cell line RAW264.7)) (UniProt Q8K2C6)
Test: affinity purification with mass spectrometry; co-immunoprecipitation and mass spectrometry from RAW264.7 cells stably overexpressing Sirt5, mock RAW264.7 cells as control

Sequences of proteins named here, by UniProt entry; tags and fusion partners are left off. Residues count along the entry.
UniProt Q8K2C6, residues 37-310: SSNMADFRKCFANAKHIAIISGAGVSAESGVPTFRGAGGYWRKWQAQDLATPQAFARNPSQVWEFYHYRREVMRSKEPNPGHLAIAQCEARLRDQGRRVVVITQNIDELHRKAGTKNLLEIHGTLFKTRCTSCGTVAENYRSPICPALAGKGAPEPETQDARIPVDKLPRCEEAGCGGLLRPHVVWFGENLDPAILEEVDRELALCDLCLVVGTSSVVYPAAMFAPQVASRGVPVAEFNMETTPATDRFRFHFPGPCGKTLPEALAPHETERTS
UniProt Q62167: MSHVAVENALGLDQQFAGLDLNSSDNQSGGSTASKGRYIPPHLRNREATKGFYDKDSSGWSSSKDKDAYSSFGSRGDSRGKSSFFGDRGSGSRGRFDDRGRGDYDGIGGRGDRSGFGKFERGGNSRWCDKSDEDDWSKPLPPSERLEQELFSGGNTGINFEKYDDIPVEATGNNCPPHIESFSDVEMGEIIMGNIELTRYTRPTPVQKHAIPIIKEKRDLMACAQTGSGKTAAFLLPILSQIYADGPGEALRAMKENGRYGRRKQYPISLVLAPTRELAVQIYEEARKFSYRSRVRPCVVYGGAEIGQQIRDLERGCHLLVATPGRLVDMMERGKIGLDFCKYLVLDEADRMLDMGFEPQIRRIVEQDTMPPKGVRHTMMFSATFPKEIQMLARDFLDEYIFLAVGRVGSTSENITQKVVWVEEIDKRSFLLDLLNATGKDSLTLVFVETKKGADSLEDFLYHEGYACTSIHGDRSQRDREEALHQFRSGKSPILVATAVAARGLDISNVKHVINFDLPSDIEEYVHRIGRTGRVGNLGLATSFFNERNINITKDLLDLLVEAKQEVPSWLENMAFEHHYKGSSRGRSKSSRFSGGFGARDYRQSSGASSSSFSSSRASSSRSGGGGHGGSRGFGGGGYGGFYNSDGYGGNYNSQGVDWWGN

- binding: binds
Substance: DDX3, endogenous in RAW264.7 cells (from UniProt Q62167 1-662)
